Data reported in PubChem BioAssay AID1487 (National Center for Advancing Translational Sciences (NCATS), 2009).
Where “and” joins values, the source holds several entries; their conditions need not be identical. Equal entries are not always repeated. The list shows a part of the results. Shown are side measurements of this screen, not its main read-out; they come without a call. Compounds called inactive in the main read-out are mostly missing here. Potencies come from curve fits of mixed quality, noted in brackets.

Test: qHTS Assay for Modulators of Lamin A Splicing
Conditions: HeLa LMNA splicing GFP/RFP minigene ratio, 48 h
How it was run: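 Read-out is the ratio of GFP to DsRed2 object intensity, acquired by 488 nm laser-scanning cytometry on HeLa lamin A-EGFP minigene reporter cells. Compound incubation 48 hrs at 37 °C in Opti-MEM with 2% FBS; DMSO 0.5% final.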

[1] = measured here: GFP splicing reporter channel
[2] = measured here: RFP viability control channel

Structure (SMILES) | AC50 [1] | AC50 [2]
Cn1cc(C(=O)N2CCC3(CC2)OCCO3)c2c3ccccc3n(C)c2c1=O | 1.26 µM [rising, partial curve, poor fit] | –
COc1ccc(C(=O)Nc2ccccc2C(=O)NC(C(=O)NCc2ccco2)C(C)C)cc1 (stereo unspecified) | – | 5.62 µM [rising, single point]
C[C@H]1CCC/C=C/C2C[C@H](O)CC2[C@H](O)/C=C/C(=O)O1 (stereo partly specified) | – | 0.224 µM [rising, full curve]
CCc1ccc(-n2c(SC(CC)C(=O)N(CC)CC)nc3n[nH]c(C)c3c2=N)cc1 (stereo unspecified) | – | 0.0631 µM [falling, full curve, poor fit]
C[C@H](N)CN1CCc2ccc(Br)cc21 | 25.1 µM [falling, single point] | 3.55 µM [falling, single point]
CCCCCCCSc1cc(OC)c(CCNC)cc1OC | – | 0.224 µM [falling, full curve, poor fit]
Cc1cc(C)[n+](C2C3CC4CC(C3)CC2C4)o1 (stereo unspecified) | 31.6 µM [rising, single point] | 35.5 µM [rising, single point]
CC(=O)C1=C(O)C2C3c4c[nH]c5cccc(c45)CC3C(C)(C)N2C1=O (stereo unspecified) | 2.82 µM [rising, single point] | 3.55 µM [rising, single point]
CCOC(=O)C1C2c3ccccc3O[C@@]1(C)N=C1SCC(=O)N12 (stereo partly specified) | – | 0.00501 µM [falling, full curve, poor fit]
CN(C)[C@@H]1C(=O)C(C(N)=O)=C(O)[C@]2(O)C(=O)C3=C(O)c4c(O)ccc(Cl)c4[C@](C)(O)[C@H]3C[C@@H]12 | 0.00447 µM [falling, full curve] | 0.282 µM [falling, single point]
c1cc2n(c1)-c1c(ccc3c1OCO3)CNC2c1ccc2c(c1)OCO2 (stereo unspecified) | – | 14.1 µM [rising, single point]
C=C(C)[C@H]1CN[C@H](C(=O)O)[C@H]1CC(=O)O | 0.355 µM [falling, single point] | 5.01 µM [rising, full curve, poor fit] and 631 nM [falling, full curve, poor fit]
O=C(O)C1C2CCC(O2)C1C(=O)NC1CCCCC1 (stereo unspecified) | 31.6 µM [rising, single point] | 35.5 µM [rising, single point]
CCOCCCNC(=O)c1c[nH]c2ccc(S(=O)(=O)N(C)c3ccc(Cl)cc3F)cc2c1=O | – | 0.02 µM [rising, full curve, poor fit]
COc1ccc(Nc2cc(C)c3cc(NC(=O)c4ccccc4Cl)ccc3n2)cc1 | – | 25.1 µM [rising, single point]
CCC(=Nc1cc(OC)ccc1OC)c1c(O)[nH]c(=O)[nH]c1=O | 3.55 µM [rising, partial curve] | 35.5 µM [falling, single point]
CCNC(=O)[C@H]1O[C@@H](n2cnc3c(N)ncnc32)[C@H](O)[C@H]1O | 0.2 µM [falling, full curve, poor fit] | –
CC1(C)CC(=O)C(C=NCCN2CCN(C(=O)Cc3ccc(Cl)cc3)CC2)=C(O)C1 | – | 1.58 µM [rising, partial curve]
O=C(NC1CCCCC1)C1CCN(C(=O)c2ccc(-c3ccccc3)cc2)CC1 | 1.78 µM [falling, partial curve, poor fit] | 4.47 µM [falling, partial curve, poor fit]
CCCCn1c(O)c(C(CC)=NCCc2ccccc2)c(=O)[nH]c1=O | 15.8 µM [rising, partial curve] | 20 µM [rising, partial curve]
CC(C)N(C(=O)CCl)c1ccccc1 | 20 µM [falling, partial curve] | 25.1 µM [falling, single point]
NC(CCCP(=O)(O)O)C(=O)O (stereo unspecified) | 0.0501 µM [falling, full curve, poor fit] | 0.000794 µM [falling, full curve, poor fit]
Cc1cccc(NP(=O)(Oc2ccccc2F)Oc2ccccc2F)c1 | – | 15.8 µM [rising, single point]
CN1Cc2c(ccc3c2OCO3)[C@@H]2[C@@H](O)Cc3cc4c(cc3[C@@H]21)OCO4 | 0.562 µM [falling, full curve] | 0.891 µM [falling, full curve]
O=C(Nc1ccc2c(c1)OCCO2)c1cccn(Cc2cccc(F)c2)c1=O | 10 µM [falling, partial curve] | –

Part of the list above, in CSV form.
Structure (SMILES),AC50 [1],AC50 [2]
c1cc2n(c1)-c1c(ccc3c1OCO3)CNC2c1ccc2c(c1)OCO2 (stereo unspecified),–,"14.1 µM [rising, single point]"
CCC(=Nc1cc(OC)ccc1OC)c1c(O)[nH]c(=O)[nH]c1=O,"3.55 µM [rising, partial curve]","35.5 µM [falling, single point]"
CC1(C)CC(=O)C(C=NCCN2CCN(C(=O)Cc3ccc(Cl)cc3)CC2)=C(O)C1,–,"1.58 µM [rising, partial curve]"
CN1Cc2c(ccc3c2OCO3)[C@@H]2[C@@H](O)Cc3cc4c(cc3[C@@H]21)OCO4,"0.562 µM [falling, full curve]","0.891 µM [falling, full curve]"

More results

Structure (SMILES) | AC50 [1] | AC50 [2]
Cc1nonc1OCCNc1ccc([N+](=O)[O-])c2cccnc12 | 17.8 µM [rising, single point] | 35.5 µM [rising, single point]
O=c1[nH]c(=O)n(Cc2ccc(F)cc2)c(O)c1C=Nc1ccc(Cl)cc1 | – | 35.5 µM [falling, single point]
O=[N+]([O-])c1ccc(Sc2nc3ccccc3o2)c([N+](=O)[O-])c1 | 35.5 µM [falling, single point] | 35.5 µM [falling, single point]
CCc1ccccc1NC(=O)c1cccn(Cc2ccccc2F)c1=O | 0.282 µM [falling, full curve, poor fit] | 0.158 µM [falling, full curve, poor fit]
CCC1(c2ccccc2)C(=O)NC(=O)N(C)C1=O (stereo unspecified) | 0.00398 µM [falling, full curve, poor fit] | 0.447 µM [falling, single point]
CCCCCn1c(N)c(C(=O)NCc2cccs2)c2nc3ccccc3nc21 | 28.2 µM [falling, single point] | 35.5 µM [falling, single point]
Nc1c(C(=O)NCCc2ccccc2)c2nc3ccccc3nc2n1CCN1CCOCC1 | 25.1 µM [falling, single point] | 14.1 µM [falling, partial curve]
CCOC(=O)c1cc(CC)sc1/N=C/C1C(=O)NC(=S)NC1=O | 0.0126 µM [rising, full curve, poor fit] | 0.794 µM [rising, partial curve]
COc1ccc(C(=O)Nc2sc3c(c2C(=O)O)CC(C)(C)OC3)cc1 | – | 3.55 µM [rising, partial curve, poor fit]
CCCCn1c(O)c(/C(CC)=N/N2CCCCC2c2cccnc2)c(=O)[nH]c1=S (stereo unspecified) | – | 11.2 µM [rising, partial curve, poor fit]
O=C1c2cccc3cccc(c23)C(=O)N1/N=C/c1c(O)n(-c2ccccc2)c(=O)[nH]c1=O | – | 0.00447 µM [falling, full curve, poor fit]
CN1[C@@H]2CC(OC(=O)[C@@H](CO)c3ccccc3)C[C@@H]1[C@H]1O[C@H]12 (stereo partly specified) | – | 0.126 µM [rising, full curve, poor fit]
CCOC(=O)C(O)(c1ccc(NC(=S)NC(=O)c2ccc(Cl)cc2Cl)cc1)C(F)(F)F (stereo unspecified) | 35.5 µM [falling, single point] | 3.55 µM [rising, single point]
O=[N+]([O-])c1ccc2nc(N3CCNCC3)ccc2c1 | 14.1 µM [falling, partial curve] | 5.62 µM [falling, partial curve]
C=CCN1C(=O)NC(=O)/C(=C/c2ccoc2)C1=O | 10 µM [falling, partial curve] | 3.16 µM [falling, partial curve, poor fit]
Cc1cc(S(=O)(=O)NCC(C)C)ccc1OCC(=O)N1CCN(Cc2ccccc2)CC1 | – | 11.2 µM [rising, partial curve]
O=C1OC(=O)C2C3CCC(O3)C12 (stereo unspecified) | 31.6 µM [falling, single point] and 35.5 µM [falling, single point] | 31.6 µM [falling, single point] and 1.58 µM [falling, partial curve, poor fit]
Cc1nn(Cc2ccccc2)c(Cl)c1C(=O)OC(C)C(=O)Nc1ccc(F)cc1Cl (stereo unspecified) | – | 20 µM [falling, partial curve, poor fit]
CC(=O)[C@@]1(O)CC[C@H]2[C@@H]3C[C@H](C)C4=CC(=O)CC[C@]4(C)[C@H]3CC[C@@]21C | 11.2 µM [rising, single point] | 1 µM [falling, full curve, poor fit]
COC(=O)C1=Nc2ccccc2/C1=C\c1c(O)n(-c2ccc(OC)cc2)c(=O)[nH]c1=O | 22.4 µM [falling, single point] | 17.8 µM [falling, partial curve]
Cc1ccsc1C(=O)C1CCCN(Cc2cc3ccccc3o2)C1 (stereo unspecified) | 25.1 µM [falling, partial curve] | 0.141 µM [falling, full curve, poor fit]
CC[n+]1c(SC)ccc2cc(OC)ccc21 | 31.6 µM [rising, single point] | 35.5 µM [rising, single point]
O=C(O)CCn1cc(C=C2C(=O)NC(=O)NC2=O)c(-c2cc3ccccc3oc2=O)n1 | 0.178 µM [rising, full curve, poor fit] | –
COCc1ccc(CN2CCCC(C(=O)c3sccc3C)C2)o1 (stereo unspecified) | – | 0.02 µM [falling, full curve, poor fit]
